HELM strings list residues between dots; [ac] is acetyl, [am] amide, other brackets name non-standard units.
Assay: general procedure: Fmoc solid-phase peptide synthesis; Rink Amide MBHA resin (0.33 mmol g^-1 loading); Oxyma/DIC; HATU/HOAT/DIPEA for S5/R8 residues
Conditions: whole synthesis, scale of the general procedure 350 mg resin, 0.33 mmol g^-1 loading capacity

PEPTIDE1{I.K.L.S.P.E.T.K.D.N.L.K.K.V.L.K.[S5].A.I.K.[S5].A.I.A.V.A.K.M.V.[am]}$PEPTIDE1,PEPTIDE1,17:R3-21:R3$$$V2.0
isolated yield: 18.47%

Source: paper PMC9081086 (RSC Advances, 2018)
